The list does not hold the whole screen: it is rich in T/C values a quarter to a half above the control, in often repeated tests (any T/C) and in doses without a T/C. Further doses and runs are listed elsewhere. T/C is the treated group as % of the vehicle group. Some doses have a count of surviving animals in place of a T/C: the source holds a T/C of zero for them, seemingly a mark for toxic or unscored doses. Some doses without a T/C left all or most animals alive at the check, yet need not have been tolerated: the source hardly ever lists a survival T/C far under the control, and the zero likely stands for such cases as well. Survivors were counted at the toxicity check, usually on the fifth day, unless a day is given; later deaths do not show. Schedule codes are those of the source, read here as Q, the interval in days (D) or hours (H), X, the number of doses. Some schedule codes hold Z or #, which are not explained here. Some entries hold several experiments; the results are listed from low to high. For survival time, this PubChem deposit counts one and a half times the control or more as active, and values a quarter to a half above the control carry no call in these data; other NCI protocols may use other cut-offs. Some T/C values are followed by the survivors on the day toxicity was checked, most often the fifth; where none is given, no animal had died by that day.
System: L1210 leukemia ip in BDF1 mice, survival T/C
Test: NCI In Vivo Anticancer Drug Screen. Data for tumor model L1210 Leukemia (intraperitoneal) in B6D2F1 (BDF1) mice
Conditions: T/C endpoint: median survival time, higher T/C = longer survival

Structure (SMILES): CN(C)/N=N/c1nc[nH]c1C(N)=O
- T/C (dose: 320.0 mg/kg/injection, schedule: Q01DX009 (ip), vehicle: Klucel (hydroxypropylcellulose) (HPC)): 145 % of control
- T/C (dose: 320.0 mg/kg/injection, schedule: Q01DX015 (ip), vehicle: Klucel (hydroxypropylcellulose) (HPC)): 135 % of control
- T/C (dose: 400.0 mg/kg/injection, schedule: Q01DX009 (ip), vehicle: Klucel (hydroxypropylcellulose) (HPC), evaluated on day 24): 166 % of control
- T/C (dose: 400.0 mg/kg/injection, schedule: Q01DX009 (ip), vehicle: Klucel (hydroxypropylcellulose) (HPC), evaluated on day 30): 133 and 138 % of control
- T/C (dose: 400.0 mg/kg/injection, schedule: Q01DX009 (ip), vehicle: Klucel (hydroxypropylcellulose) (HPC), evaluated on day 40): 122 % of control
- survivor count (dose: 400.0 mg/kg/injection, schedule: Q01DX009 (ip), vehicle: Klucel (hydroxypropylcellulose) (HPC)): 8 of 8
- T/C (dose: 400.0 mg/kg/injection, schedule: Q01DX017 (ip), vehicle: steroid suspending solution, evaluated on day 5): 92 % of control
- T/C (dose: 400.0 mg/kg/injection, schedule: Q01DX017 (ip), vehicle: steroid suspending solution, evaluated on day 30): 92 [6 of 8 alive] and 144 % of control
- T/C (dose: 400.0 mg/kg/injection, schedule: Q01DX017 (ip), vehicle: steroid suspending solution, evaluated on day 40): 138 % of control
- T/C (dose: 400.0 mg/kg/injection, schedule: Q01DX017 (ip), vehicle: steroid suspending solution, evaluated on day 45): 138 % of control
- T/C (dose: 400.0 mg/kg/injection, schedule: Q01DX017 (ip), vehicle: steroid suspending solution, evaluated on day 50): 144 % of control
- T/C (dose: 400.0 mg/kg/injection, schedule: Q01DX017 (ip), vehicle: steroid suspending solution, evaluated on day 54): 122 [7 of 8 alive] and 150 % of control [7 of 8 alive]
- T/C (dose: 400.0 mg/kg/injection, schedule: Q01DX017 (ip), vehicle: steroid suspending solution, evaluated on day 60): 111 % of control
- T/C (dose: 400.0 mg/kg/injection, schedule: Q01DX017 (ip), vehicle: steroid suspending solution, evaluated on day 69): 133 % of control
- T/C (dose: 500.0 mg/kg/injection, schedule: Q01DX009 (ip), vehicle: Klucel (hydroxypropylcellulose) (HPC), evaluated on day 5): 101 and 137 % of control
- T/C (dose: 500.0 mg/kg/injection, schedule: Q01DX009 (ip), vehicle: Klucel (hydroxypropylcellulose) (HPC), evaluated on day 27): 101 % of control [7 of 8 alive]
- T/C (dose: 500.0 mg/kg/injection, schedule: Q01DX009 (ip), vehicle: Klucel (hydroxypropylcellulose) (HPC), evaluated on day 30): 95 [6 of 8 alive], 136, 155 % of control
- T/C (dose: 500.0 mg/kg/injection, schedule: Q01DX009 (ip), vehicle: Klucel (hydroxypropylcellulose) (HPC), evaluated on day 33): 172 % of control
- T/C (dose: 500.0 mg/kg/injection, schedule: Q01DX011 (ip), vehicle: Klucel (hydroxypropylcellulose) (HPC), evaluated on day 5): 131 % of control
- T/C (dose: 500.0 mg/kg/injection, schedule: Q01DX011 (ip), vehicle: Klucel (hydroxypropylcellulose) (HPC), evaluated on day 46): 127 % of control
- T/C (dose: 500.0 mg/kg/injection, schedule: Q01DX012 (ip), vehicle: Klucel (hydroxypropylcellulose) (HPC), evaluated on day 5): 146 % of control
- T/C (dose: 500.0 mg/kg/injection, schedule: Q01DX012 (ip), vehicle: Klucel (hydroxypropylcellulose) (HPC), evaluated on day 46): 144 % of control
- T/C (dose: 500.0 mg/kg/injection, schedule: Q01DX015 (ip), vehicle: Klucel (hydroxypropylcellulose) (HPC), evaluated on day 5): 96 and 99 % of control
- T/C (dose: 500.0 mg/kg/injection, schedule: Q01DX015 (ip), vehicle: Klucel (hydroxypropylcellulose) (HPC), evaluated on day 7): 106 % of control
- T/C (dose: 500.0 mg/kg/injection, schedule: Q01DX015 (ip), vehicle: Klucel (hydroxypropylcellulose) (HPC), evaluated on day 20): 106 % of control [7 of 8 alive]
- T/C (dose: 500.0 mg/kg/injection, schedule: Q01DX015 (ip), vehicle: Klucel (hydroxypropylcellulose) (HPC), evaluated on day 33): 100 % of control
- T/C (dose: 500.0 mg/kg/injection, schedule: Q01DX015 (ip), vehicle: Klucel (hydroxypropylcellulose) (HPC), evaluated on day 38): 94 % of control
- T/C (dose: 500.0 mg/kg/injection, schedule: Q01DX017 (ip), vehicle: Klucel (hydroxypropylcellulose) (HPC), evaluated on day 5): 79 and 96 % of control
- T/C (dose: 500.0 mg/kg/injection, schedule: Q01DX017 (ip), vehicle: Klucel (hydroxypropylcellulose) (HPC), evaluated on day 38): 100 % of control
- survivor count (dose: 500.0 mg/kg/injection, schedule: Q01DX017 (ip), vehicle: Klucel (hydroxypropylcellulose) (HPC)): 8 of 8
- T/C (dose: 800.0 mg/kg/injection, schedule: Q01DX009 (ip), vehicle: Klucel (hydroxypropylcellulose) (HPC), evaluated on day 24): 127 % of control [7 of 8 alive]
- T/C (dose: 800.0 mg/kg/injection, schedule: Q01DX009 (ip), vehicle: Klucel (hydroxypropylcellulose) (HPC), evaluated on day 30): 116 [5 of 6 alive] and 161 % of control
- survivor count (dose: 800.0 mg/kg/injection, schedule: Q01DX009 (ip), vehicle: Klucel (hydroxypropylcellulose) (HPC)): 7 of 8
- T/C (dose: 800.0 mg/kg/injection, schedule: Q01DX017 (ip), vehicle: steroid suspending solution, evaluated on day 5): 26 % of control
- T/C (dose: 800.0 mg/kg/injection, schedule: Q01DX017 (ip), vehicle: steroid suspending solution, evaluated on day 30): 127 % of control [6 of 8 alive]
- T/C (dose: 800.0 mg/kg/injection, schedule: Q01DX017 (ip), vehicle: steroid suspending solution, evaluated on day 50): 105 % of control
- T/C (dose: 800.0 mg/kg/injection, schedule: Q01DX017 (ip), vehicle: steroid suspending solution, evaluated on day 54): 133 % of control
- survivor count (dose: 800.0 mg/kg/injection, schedule: Q01DX017 (ip), vehicle: steroid suspending solution): 2 of 8, 5 of 8, 6 of 8
- survivor count (dose: 800.0 mg/kg/injection, schedule: Q## X017 (ip), vehicle: steroid suspending solution): 2 of 8
- T/C (dose: 833.0 mg/kg/injection, schedule: Q01DX013 (ip), vehicle: Klucel (hydroxypropylcellulose) (HPC), evaluated on day 7): 129 % of control
- T/C (dose: 833.0 mg/kg/injection, schedule: Q01DX013 (ip), vehicle: Klucel (hydroxypropylcellulose) (HPC), evaluated on day 24): 133 % of control [7 of 8 alive]
